{"sequences": {"note": "Amino acid sequences for entries named in this document (tags omitted). Residues count along the entry.", "UniProt P05067, 672-711 limits assumed": "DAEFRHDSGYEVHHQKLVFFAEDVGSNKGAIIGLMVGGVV"}, "source": "patent US12616760B2", "about": "“Synthetic cyclic peptide mimetics” (priority 2020, dated 2026)", "key": {"[1]": {"target": "T1, Aβ40 (Homo sapiens, UniProt P05067)", "T1 construct": "The extent of Aβ40 aggregation in the presence of increasing concentrations of azacyclopeptides", "assay": "Thioflavin T (ThT) fluorescence assay of Aβ40 aggregation", "format": "biochemical", "settings": "incubation with Aβ", "experimental": "Amyloid generation can be identified and quantified using the thioflavin T (ThT) fluorescence dye assay. […] Agents that bind and inhibit aggregation of Aβ diminish ThT fluorescence relative to untreated Aβ. The extent of Aβ40 aggregation in the presence of increasing concentrations of azacyclopeptides and azasulfurylcyclopeptide 55 was evaluated by the ThT assay. Fluorescence of Aβ40 that was aged for 48 h was used as control, defined as 0% anti-amyloidogenic activity, and compared with fluorescence in the presence of cyclic peptide mimics at increasing concentrations to measure anti-amyloidogenic activity."}, "[2]": {"test_system": "rat pheochromocytoma PC12 cells", "format": "cell-based", "settings": "incubation with Aβ at 5:1 ratio", "experimental": "Considering that self-assembly and aggregation of Aβ are key components of AD pathogenesis, the ability of azaGly-cyclopeptides 2-7 to reduce Aβ-induced toxicity was next tested in rat pheochromocytoma PC12 cells. Cells were incubated for 24 h with Aβ40 (10 μM) that had been aged for 48 h in the presence and absence of increasing concentrations of the azacyclopeptides. Cell viability was assessed using the 3-(4,5-dimethylthiazol-2-yl)-2,5-diphenyltetrazolium bromide (MTT) survival assay (Table 2). In this assay, viable cells reduce permeable MTT by active metabolism to produce a purple-colored formazan product with absorbance maximum near 570 nm. Dead cells lose the ability to convert MTT into formazan. The quantity of formazan is therefore directly proportional to the number of viable cells and measurable over time by recording changes in absorbance using a spectrophotometer. Neurons are susceptible to the lethal effects of misfolded proteins which are likely to aggregate at increased concentration. The pheochromocytoma (PC12) cell line is commonly used in in vitro studies to examine neuronal variation and neurotoxicity as a model of neurodegenerative disease."}, "[3]": {"test_system": "CL2006 C. elegans strain", "format": "in vivo, Caenorhabditis (C.) elegans", "settings": "CL2006 worms; 50 μM", "excerpt": "Compound 3 was used in two in vivo transgenic Caenorhabditis (C.) elegans models expressing human Aβ42. The CL2006 C. elegans strain produces constitutively a body-wall muscle-specific Aβ42, the aggregation of which causes age-dependent paralysis, motility dysfunction and consequently short lifespan. The CL2355 strain expresses a temperature-inducible pan-neuronal Aβ42, accumulation of which leads to deficits in chemotaxis, associative learning and thrashing in liquid. The CL2006 mutant and control CL802 wild type worms had respective lifespans of 13.6 and 15.6 days (P<0.005, FIG. 3A)."}, "[4]": {"test_system": "CL2355 strain", "assay": "Motility (thrashes per minute) of C. elegans", "format": "in vivo"}, "[5]": {"test_system": "CL2355 strain", "assay": "Chemotaxis assay of C. elegans", "format": "in vivo"}}, "note": "At least one peptide structure holds a part that was inferred or is arguable (an end, a ring closure or a residue). Square brackets hold non-standard residues; d marks the D form. Peptide text beside a SMILES is read from it. Nle = CCCC[C@H](N)C(=O)O; azaGly = NNC(=O)O"}
{"compound": "CCCC[C@@H]1NC(=O)[C@@H](CC(C)C)NC(=O)[C@H](CCCCN)NC(=O)NNC(=O)[C@H](Cc2c[nH]cn2)NC(=O)[C@@H](Cc2c[nH]c3ccccc23)NC1=O", "note": "[Compound 3, c(D-Leu-L-Nle-D-Trp-L-His-Gly*-L-Lys)] (cyclo(K[dL][Nle][dW]H[azaGly]))", "values": [{"measurement": "effect on lag phase and ThT fluorescence", "setting": "[1]", "value": "dramatically prolonged the lag phase and reduced the ThT fluorescence"}, {"measurement": "reversal of Aβ toxicity to the cells", "setting": "[2]", "value": "reversed almost completely Aβ toxicity to the cells"}, {"measurement": "lifespan", "setting": "[3]", "value": "increased (p<0.005) lifespan to that of wild type"}, {"measurement": "motility (thrashes per minute)", "setting": "[4]; CL2355 mutants, increasing concentrations, 16° C. 36 h then 23° C. 36 h", "value": "increased dose dependently to untreated wild type CL2122 levels"}, {"measurement": "bending frequency", "setting": "[4]; wild type CL2122 worms", "value": "No effect on bending frequency"}, {"measurement": "chemotaxis index (CI)", "setting": "[5]; CL2355 mutants, increasing concentrations", "value": "dose dependently increased CI levels to that of the wild type"}, {"measurement": "chemotaxis index (CI)", "setting": "[5]; wild type CL2122 worms, highest amount", "value": "did not change the CI levels"}]}
